Measurements reported in PubChem BioAssay AID504774 (Drosophila RNAi Screening Center, 2011).
The screen tested about 23,000 reagents; below is a random part of those with a known target gene and a result. 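Values are quantile-normalised luminescence on an arbitrary scale; higher means more cells surviving MMS.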 The numbers tell different reagents against one gene apart. Names joined by + are all predicted targets of the reagent.

Screen: 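Knock-downs that shift viability of MMS-exposed cells relative to untreated ones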 (primary screen)
Cells: Drosophila Kc167 cells
Reagent: long dsRNA against Drosophila genes, about 0.25 µg dsRNA per well
Time to read-out: about 6 days: 3 days knock-down, then 3 days with or without MMS
Conditions: methyl methanesulphonate 0.004% (w/v) for 3 days after knock-down
Detection: 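Viability in wells given MMS, read as ATP luminescence, normalised by quantiles plate by plate and averaged across replicates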
Reading the numbers: mean viability with MMS and viability with MMS: higher = more surviving cells after MMS

| target gene | reagent no. | mean viability with MMS | viability with MMS, replicate 1 | viability with MMS, replicate 2 |
| --- | --- | --- | --- | --- |
| ida | 1 | 3.48e6 | 3.93e6 | 3.97e6 |
| Sodh2 | 1 | 3.70e6 | 4.07e6 | 4.18e6 |
| Try29F | 1 | 3.67e6 | 3.87e6 | 4.44e6 |
| CG13747 | 1 | 3.59e6 | 4.12e6 | 3.98e6 |
| key | 1 | 2.89e6 | 2.70e6 | 3.55e6 |
| CG44325 | 1 | 3.35e6 | 3.65e6 | 3.94e6 |
| Tsp29Fa | 1 | 3.71e6 | 4.16e6 | 4.25e6 |
| CG15170 | 1 | 3.61e6 | 4.13e6 | 4.05e6 |
| CG4666 | 1 | 3.53e6 | 4.03e6 | 3.99e6 |
| Odj | 1 | 3.57e6 | 4.06e6 | 4.04e6 |
| CG32795 | 1 | 3.45e6 | 3.87e6 | 3.96e6 |
| CG32795 | 2 | 3.50e6 | 3.87e6 | 4.08e6 |
| Fpgs1 | 1 | 3.48e6 | 3.94e6 | 3.94e6 |
| CG16786 | 1 | 3.70e6 | 4.13e6 | 4.23e6 |
| CG6770 | 1 | 3.48e6 | 3.91e6 | 3.91e6 |
| RpS18 | 1 | 2.96e6 | 3.53e6 | 3.55e6 |
| CAP | 1 | 3.57e6 | 3.98e6 | 4.08e6 |
| CAP | 2 | 3.57e6 | 4.11e6 | 3.99e6 |
| CAP | 3 | 3.48e6 | 4.01e6 | 3.90e6 |
| CAP | 4 | 3.70e6 | 4.10e6 | 4.17e6 |
| CAP | 5 | 3.55e6 | 3.97e6 | 4.07e6 |
| klar | 1 | 3.40e6 | 3.86e6 | 3.88e6 |
| klar | 2 | 3.49e6 | 3.97e6 | 3.98e6 |
| Trmt61 | 1 | 3.53e6 | 3.98e6 | 4.00e6 |
| CG34195 | 1 | 3.46e6 | 3.91e6 | 3.93e6 |
| Hk | 1 | 3.54e6 | 3.98e6 | 4.06e6 |
| Hk | 2 | 3.33e6 | 3.78e6 | 3.80e6 |
| snu | 1 | 3.60e6 | 3.99e6 | 4.17e6 |
| CG33285 | 1 | 3.49e6 | 4.00e6 | 3.94e6 |
| CG4364 | 1 | 3.43e6 | 3.87e6 | 3.86e6 |
| Surf6 | 1 | 3.51e6 | 3.99e6 | 3.99e6 |
| boly | 1 | 3.68e6 | 4.16e6 | 4.13e6 |
| Asap | 1 | 3.68e6 | 4.17e6 | 4.08e6 |
| Asap | 2 | 3.67e6 | 4.04e6 | 4.28e6 |
| Osi17 | 1 | 3.35e6 | 3.83e6 | 3.79e6 |
| CG13193 | 1 | 3.50e6 | 3.91e6 | 3.99e6 |
| CG3226 | 1 | 3.60e6 | 3.87e6 | 4.25e6 |
| Polr2B | 1 | 2.94e6 | 3.56e6 | 3.56e6 |
| CG18545 | 1 | 3.68e6 | 4.10e6 | 4.15e6 |
| CG30172 | 1 | 3.67e6 | 4.11e6 | 4.19e6 |
| Alg12 | 1 | 3.51e6 | 4.04e6 | 3.93e6 |
| HSPBAP1 | 1 | 3.66e6 | 4.12e6 | 4.17e6 |
| CG31637 | 1 | 3.57e6 | 4.24e6 | 3.84e6 |
| CG31637 | 2 | 3.48e6 | 3.96e6 | 3.92e6 |
| CG33155 + mRpL53 | 1 | 3.61e6 | 4.07e6 | 4.06e6 |
| CtsB | 1 | 3.61e6 | 4.20e6 | 4.03e6 |
| Dcr-2 | 1 | 3.58e6 | 4.20e6 | 3.91e6 |
| Egfr | 1 | 3.50e6 | 3.89e6 | 4.06e6 |
| Egfr | 2 | 3.67e6 | 4.16e6 | 4.16e6 |
| nocte | 1 | 3.66e6 | 4.20e6 | 4.32e6 |
| ND-B14.5B | 1 | 3.89e6 | 4.25e6 | 4.43e6 |
| ric8b + ric8a | 1 | 3.61e6 | 4.05e6 | 4.10e6 |
| CG16762 | 1 | 3.60e6 | 4.06e6 | 4.09e6 |
| CG4291 | 1 | 3.51e6 | 3.77e6 | 4.15e6 |
| CG32086 | 1 | 3.53e6 | 4.05e6 | 3.95e6 |
| CG3520 | 1 | 3.67e6 | 4.12e6 | 4.19e6 |
| CG14971 | 1 | 3.54e6 | 4.00e6 | 4.04e6 |
| CG10841 | 1 | 3.37e6 | 3.89e6 | 3.72e6 |
| CG6683 | 1 | 3.69e6 | 4.21e6 | 4.17e6 |
| GM130 | 1 | 3.73e6 | 4.38e6 | 4.15e6 |
| CG32985 | 1 | 3.54e6 | 3.98e6 | 4.06e6 |
| CG42362 + CG42363 | 1 | 3.43e6 | 3.80e6 | 3.85e6 |
| Alg1 | 1 | 3.58e6 | 4.03e6 | 4.09e6 |
| TwdlL | 1 | 3.70e6 | 4.07e6 | 4.29e6 |
| Tsp42Eb + CG30160 | 1 | 3.56e6 | 3.97e6 | 4.10e6 |
| Tsp42Eb + CG30160 | 2 | 3.61e6 | 4.05e6 | 4.09e6 |
| nvd | 1 | 3.60e6 | 4.10e6 | 4.02e6 |
| dmrt11E | 1 | 3.56e6 | 4.01e6 | 4.04e6 |
| mTerf3 | 1 | 3.66e6 | 4.17e6 | 4.10e6 |
| CG14050 | 1 | 3.47e6 | 3.97e6 | 3.89e6 |
| slp2 | 1 | 3.49e6 | 3.98e6 | 3.93e6 |
| dpr13 | 1 | 3.67e6 | 4.27e6 | 4.02e6 |
| dpr13 | 2 | 3.43e6 | 3.93e6 | 3.81e6 |
| ru | 1 | 3.54e6 | 4.05e6 | 3.96e6 |
| CG3927 | 1 | 3.67e6 | 4.20e6 | 4.12e6 |
| CG3927 | 2 | 3.60e6 | 4.00e6 | 4.16e6 |
| sra | 1 | 3.59e6 | 4.11e6 | 4.03e6 |
| CG10462 | 1 | 3.44e6 | 3.89e6 | 3.86e6 |
| Abcd1 | 1 | 3.57e6 | 4.03e6 | 4.06e6 |
| GluRIIB | 1 | 3.53e6 | 3.95e6 | 4.04e6 |
| CG9682 | 1 | 3.62e6 | 4.05e6 | 4.15e6 |
| Spn38F | 1 | 3.60e6 | 4.05e6 | 4.12e6 |
| Tbcd | 1 | 3.28e6 | 3.61e6 | 3.70e6 |
| CG14929 + CG4970 + CG14930 | 1 | 3.52e6 | 3.98e6 | 4.02e6 |
| Eogt | 1 | 3.43e6 | 3.81e6 | 3.88e6 |
| CG10514 | 1 | 3.43e6 | 3.96e6 | 3.76e6 |
| mad2 | 1 | 3.50e6 | 3.97e6 | 3.97e6 |

Laid out differently: 9 of the entries above.
CAP #1 | mean viability with MMS: 3.57e6; viability with MMS, replicate 1: 3.98e6; viability with MMS, replicate 2: 4.08e6
CAP #2 | mean viability with MMS: 3.57e6; viability with MMS, replicate 1: 4.11e6; viability with MMS, replicate 2: 3.99e6
CAP #3 | mean viability with MMS: 3.48e6; viability with MMS, replicate 1: 4.01e6; viability with MMS, replicate 2: 3.90e6
CAP #4 | mean viability with MMS: 3.70e6; viability with MMS, replicate 1: 4.10e6; viability with MMS, replicate 2: 4.17e6
CAP #5 | mean viability with MMS: 3.55e6; viability with MMS, replicate 1: 3.97e6; viability with MMS, replicate 2: 4.07e6
klar #1 | mean viability with MMS: 3.40e6; viability with MMS, replicate 1: 3.86e6; viability with MMS, replicate 2: 3.88e6
klar #2 | mean viability with MMS: 3.49e6; viability with MMS, replicate 1: 3.97e6; viability with MMS, replicate 2: 3.98e6
Trmt61 | mean viability with MMS: 3.53e6; viability with MMS, replicate 1: 3.98e6; viability with MMS, replicate 2: 4.00e6
CG34195 | mean viability with MMS: 3.46e6; viability with MMS, replicate 1: 3.91e6; viability with MMS, replicate 2: 3.93e6
